Data reported in patent publication US10688099B2, “Methods for modulating the amount of RNA transcripts” (PTC Therapeutics, Inc., priority 2013, dated 2020).
Further values from the same series stand in other lists.

Test system: RNA isoforms in PNN 1-46 SMA type I patient-derived fibroblasts
Experiment: RNA Abundance Modulation (RNA isoform abundance, iFPM, HiSeq RNA sequencing)
Type: cell-based, human
Details: 3 μM
Procedure: Cells from a cell line of interest are cultured in conditions sufficient to yield the number of cells capable of generating enough RNA for subsequent sequencing steps. Cells from the tested cell line are contacted with a compound described herein.
To culture said cells, they are seeded, at appropriate concentrations in a volume of media in a cell culture container and incubated for 4, 5, 6, 7, 8, 9, 10, or more hours. A concentrated solution of compound in a vehicle (e.g., DMSO) is then added in sufficient volume to result in the intended final concentration of the compound, for example 100 nM, 500 nM, 1 μM, 5 μM, 10 μM, 15 μM, 20 μM, or more. The cells may also be treated with vehicle alone, as a control. A number of replicates of each concentration or control may be made (e.g., 2 replicates). The cells are then incubated at a constant temperature appropriate for cell culture of the particular cell line (e.g., 37° C.) for 6, 12, 18, 24, 48, or more hours. After incubation, the growth medium is removed and the cells are washed with the appropriate buffer (e.g., PBS). Cells are then removed from adherence to the cell culture container by treatment with a solution containing trypsin, and the trypsin subsequently quenched with the appropriate volume of buffer (e.g., DMEM-FBS). The cells are then pelleted with gentle centrifugation (e.g., ≤90×g centrifugal force) and resuspended in a buffer to lyse the cells for extraction of RNA. The cell lysates may then be frozen (e.g., at −80° C.) or, alternately, may immediately be used in a procedure to purify the RNA (e.g. by use of the RNEASY PLUS® minikit). The RNA from cell lysates is eluted in the appropriate volume of buffer (e.g., RNEASE-FREE H2O®). The resulting purified RNA may then be sequenced (e.g., using RNASeq) or analyzed using a human exon array (e.g., by GENECHIP® human exon array) to determine changes in the RNA levels in those cells treated with compound compared to those cells treated only with DMSO. The purified RNA may also be quantified by other methods known in the art.
Using the RNA data obtained from sequencing, exon array, or other methods, a statistical analysis can reveal changes in the RNA levels of compound-treated compared with control. For example, t-test p-values may be calculated for the data obtained through sequencing and exon array methods in order to compare compound-treated cells to those treated with the DMSO control. […] Analysis of the sequencing and exon array data may then also yield predictions about the cause of the aberrant amount of an RNA transcript in the cells (e.g., perturbation of RNA splicing, RNA transcription, or RNA stability). These predictions may be further confirmed by methods known in the art. For example, RT-PCR and RT-qPCR may be used to confirm the change in amount of RNA transcripts for one or more particular transcripts of interest.
Following the methods described above in Example 1, PNN 1-46 SMA type I patient-derived fibroblasts were treated with 300 nM or 3 μM Compounds 774 and 808 in 0.5% DMSO.
700,000 cells were seeded in 10 mL of medium (DMEM plus 10% FBS) in a T-75 flask. Cells were allowed to attach for at least 4 hrs, after which 50 μL of a 200× compound solution (100% DMSO) was added to each well, and the plate was incubated at 37° C. for 24 hrs.
At the end of the incubation period, the supernatant was removed and the cells where washed with PBS. TrypLE (Invitrogen) express solution was added (e.g. 1.5 mL per one T75 flask). The flasks were incubated for 3 to 5 min at 37° C. The trypsin was then quenched, e.g., by adding 10 mL DMEM-FBS.
Next, the cells were pelleted using gentle centrifugation without exceeding 90×g centrifugal force. The supernatant was removed and the cell pellet was re-suspended in 600 μL RLT buffer (the RLT buffer was supplemented with beta-mercaptoethanol according to the RNeasy protocol manual) by pipetting up and down until the pellet was completely dissolved […]

Compound: CCc1nc(C)cn2nc(-c3cc(=O)n4cc(C5CCN(C)CC5)cc(C)c4n3)cc12 [Compound 774]
- FC (x + 1) (FAF1 AK293659): 0.7848
- L2FC (x + 1) (FAF1 AK293659): −0.350
- L2abs (Cpd-DMSO) (FAF1 AK293659): 1.43
- abs (Cpd-DMSO) (FAF1 AK293659): 3 iFPM
- amp FC (x + 1) (FAF1 AK293659): 1.27
- ave Cpd (FAF1 AK293659): 9 iFPM
- FC (x + 1) (FAF1 NM_007051): 0.2556
- L2FC (x + 1) (FAF1 NM_007051): −1.968
- L2abs (Cpd-DMSO) (FAF1 NM_007051): 10.32
- abs (Cpd-DMSO) (FAF1 NM_007051): 1281 iFPM
- amp FC (x + 1) (FAF1 NM_007051): 3.91
- ave Cpd (FAF1 NM_007051): 439 iFPM
- FC (x + 1) (FAM198B AK172805): 0.8219
- L2FC (x + 1) (FAM198B AK172805): −0.283
- L2abs (Cpd-DMSO) (FAM198B AK172805): −1.48
- abs (Cpd-DMSO) (FAM198B AK172805): 0 iFPM
- amp FC (x + 1) (FAM198B AK172805): 1.22
- ave Cpd (FAM198B AK172805): 1 iFPM
- FC (x + 1) (FAM198B NM016613): 0.7385
- L2FC (x + 1) (FAM198B NM016613): −0.437
- L2abs (Cpd-DMSO) (FAM198B NM016613): 6.42
- abs (Cpd-DMSO) (FAM198B NM016613): 85 iFPM
- amp FC (x + 1) (FAM198B NM016613): 1.35
- ave Cpd (FAM198B NM016613): 240 iFPM
- FC (x + 1) (FAM198B NM_001031700): 4.5905
- L2FC (x + 1) (FAM198B NM_001031700): 2.199
- L2abs (Cpd-DMSO) (FAM198B NM_001031700): 1.84
- abs (Cpd-DMSO) (FAM198B NM_001031700): 4 iFPM
- amp FC (x + 1) (FAM198B NM_001031700): 4.59
- ave Cpd (FAM198B NM_001031700): 4 iFPM
- FC (x + 1) (FAM198B NM_001128424): 0.0125
- L2FC (x + 1) (FAM198B NM_001128424): −6.324
- L2abs (Cpd-DMSO) (FAM198B NM_001128424): 6.31
- abs (Cpd-DMSO) (FAM198B NM_001128424): 79 iFPM
- amp FC (x + 1) (FAM198B NM_001128424): 80.12
- ave Cpd (FAM198B NM_001128424): 0 iFPM
- FC (x + 1) (FAM219B BC006348): 2.6547
- L2FC (x + 1) (FAM219B BC006348): 1.409
- L2abs (Cpd-DMSO) (FAM219B BC006348): 7.57
- abs (Cpd-DMSO) (FAM219B BC006348): 191 iFPM
- amp FC (x + 1) (FAM219B BC006348): 2.65
- ave Cpd (FAM219B BC006348): 305 iFPM
- FC (x + 1) (FAM219B BC064575): 0.4302
- L2FC (x + 1) (FAM219B BC064575): −1.217
- L2abs (Cpd-DMSO) (FAM219B BC064575): 5.27
- abs (Cpd-DMSO) (FAM219B BC064575): 39 iFPM
- amp FC (x + 1) (FAM219B BC064575): 2.32
- ave Cpd (FAM219B BC064575): 28 iFPM
- FC (x + 1) (FAM219B NM_020447): 0.8639
- L2FC (x + 1) (FAM219B NM_020447): −0.211
- L2abs (Cpd-DMSO) (FAM219B NM_020447): 6.23
- abs (Cpd-DMSO) (FAM219B NM_020447): 75 iFPM
- amp FC (x + 1) (FAM219B NM_020447): 1.16
- ave Cpd (FAM219B NM_020447): 475 iFPM
- FC (x + 1) (FBXO9 NM_012347): 0.5321
- L2FC (x + 1) (FBXO9 NM_012347): −0.910
- L2abs (Cpd-DMSO) (FBXO9 NM_012347): 3.35
- abs (Cpd-DMSO) (FBXO9 NM_012347): 10 iFPM
- amp FC (x + 1) (FBXO9 NM_012347): 1.88
- ave Cpd (FBXO9 NM_012347): 11 iFPM
- FC (x + 1) (FBXO9 NM_033480): 0.4922
- L2FC (x + 1) (FBXO9 NM_033480): −1.023
- L2abs (Cpd-DMSO) (FBXO9 NM_033480): 9.09
- abs (Cpd-DMSO) (FBXO9 NM_033480): 545 iFPM
- amp FC (x + 1) (FBXO9 NM_033480): 2.03
- ave Cpd (FBXO9 NM_033480): 527 iFPM
- FC (x + 1) (FBXO9 NM_033481): 0.2022
- L2FC (x + 1) (FBXO9 NM_033481): −2.306
- L2abs (Cpd-DMSO) (FBXO9 NM_033481): 4.83
- abs (Cpd-DMSO) (FBXO9 NM_033481): 28 iFPM
- amp FC (x + 1) (FBXO9 NM_033481): 4.94
- ave Cpd (FBXO9 NM_033481): 6 iFPM
- FC (x + 1) (FBXO10 BC125124): 15.6883
- L2FC (x + 1) (FBXO10 BC125124): 3.972
- L2abs (Cpd-DMSO) (FBXO10 BC125124): 3.88
- abs (Cpd-DMSO) (FBXO10 BC125124): 15 iFPM
- amp FC (x + 1) (FBXO10 BC125124): 15.69
- ave Cpd (FBXO10 BC125124): 15 iFPM
- FC (x + 1) (FBXO10 BC125125): 5.9612
- L2FC (x + 1) (FBXO10 BC125125): 2.576
- L2abs (Cpd-DMSO) (FBXO10 BC125125): 8.01
- abs (Cpd-DMSO) (FBXO10 BC125125): 258 iFPM
- amp FC (x + 1) (FBXO10 BC125125): 5.96
- ave Cpd (FBXO10 BC125125): 309 iFPM
- FC (x + 1) (FBXO10 NM_012166): 1.0172
- L2FC (x + 1) (FBXO10 NM_012166): 0.025
- L2abs (Cpd-DMSO) (FBXO10 NM_012166): 2.21
- abs (Cpd-DMSO) (FBXO10 NM_012166): 5 iFPM
- amp FC (x + 1) (FBXO10 NM_012166): 1.02
- ave Cpd (FBXO10 NM_012166): 272 iFPM
- FC (x + 1) (FDFT1 AK057726): 1.3413
- L2FC (x + 1) (FDFT1 AK057726): 0.424
- L2abs (Cpd-DMSO) (FDFT1 AK057726): 1.32
- abs (Cpd-DMSO) (FDFT1 AK057726): 2 iFPM
- amp FC (x + 1) (FDFT1 AK057726): 1.34
- ave Cpd (FDFT1 AK057726): 9 iFPM
- FC (x + 1) (FDFT1 AK296043): 21.2109
- L2FC (x + 1) (FDFT1 AK296043): 4.407
- L2abs (Cpd-DMSO) (FDFT1 AK296043): 4.34
- abs (Cpd-DMSO) (FDFT1 AK296043): 20 iFPM
- amp FC (x + 1) (FDFT1 AK296043): 21.21
- ave Cpd (FDFT1 AK296043): 20 iFPM
- FC (x + 1) (FDFT1 AK297868): 1.7107
- L2FC (x + 1) (FDFT1 AK297868): 0.775
- L2abs (Cpd-DMSO) (FDFT1 AK297868): 6.24
- abs (Cpd-DMSO) (FDFT1 AK297868): 76 iFPM
- amp FC (x + 1) (FDFT1 AK297868): 1.71
- ave Cpd (FDFT1 AK297868): 181 iFPM
- FC (x + 1) (FDFT1 AK300059): 0.3881
- L2FC (x + 1) (FDFT1 AK300059): −1.365
- L2abs (Cpd-DMSO) (FDFT1 AK300059): 0.66
- abs (Cpd-DMSO) (FDFT1 AK300059): 2 iFPM
- amp FC (x + 1) (FDFT1 AK300059): 2.58
- ave Cpd (FDFT1 AK300059): 0 iFPM
- FC (x + 1) (FDFT1 AK300245): 3.8106
- L2FC (x + 1) (FDFT1 AK300245): 1.930
- L2abs (Cpd-DMSO) (FDFT1 AK300245): 4.22
- abs (Cpd-DMSO) (FDFT1 AK300245): 19 iFPM
- amp FC (x + 1) (FDFT1 AK300245): 3.81
- ave Cpd (FDFT1 AK300245): 24 iFPM
- FC (x + 1) (FDFT1 AK301617): 5.4553
- L2FC (x + 1) (FDFT1 AK301617): 2.448
- L2abs (Cpd-DMSO) (FDFT1 AK301617): 2.55
